Some of the results follow.

By UniProt entry, the sequences of proteins in these tests, tags left out.
UniProt Q0JBA9, entry or part of it: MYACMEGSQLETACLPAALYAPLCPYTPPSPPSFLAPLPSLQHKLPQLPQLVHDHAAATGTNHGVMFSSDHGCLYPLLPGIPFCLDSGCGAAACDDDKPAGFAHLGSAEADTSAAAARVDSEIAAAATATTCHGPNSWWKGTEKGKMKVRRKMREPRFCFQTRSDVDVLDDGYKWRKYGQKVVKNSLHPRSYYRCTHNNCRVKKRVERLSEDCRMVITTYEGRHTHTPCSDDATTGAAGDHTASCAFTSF

The target of the experiment is OsWRKY34 (Oryza sativa, UniProt Q0JBA9 1-250). The experiment is described as follows: protein-binding microarray (RPBM); PBS, 2% BSA, 51.3 ng/ul salmon testes DNA, 50 uM zinc acetate, 200 nM TF, 25 C, 1 h; high values mean tight binding. The following applies: protein: recombinant; tags: N-terminal polyhistidine and DsRed monomer fusion (pET32a); label: CyDye5-dUTP incorporated in the synthesized complementary strand; 3' TTTTT single-stranded linker to array surface; dsDNA, one strand shown. The procedure, abridged: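 The binding signal is fluorescence intensity per array feature (arbitrary units). Readings came from an Axon 4000B scanner after a washed, 2% BSA-blocked, double-stranded custom Agilent array had been incubated for 1 h at 25 °C with 200 nM protein and 50 µM zinc acetate. The protein was a Ni–NTA-purified transcription factor fused N-terminally to polyhistidine and DsRed, expressed in E. coli BL21-CodonPlus.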
Turning to “TCCTTGCTGTATGTGCTATGAACCATGTTTACTTTATTCACGGAGTCACCTAGTGCAG”, the binding signal was 9670 fluorescence intensity (a.u.).

Regarding “TTTTTTCGTTTTACGTGAGTCAATTTACTCTTTATCTTCACGGAGTCACCTAGTGCAG”, the binding signal was 8980 fluorescence intensity (a.u.).

As for “ATCCGTGCTACCTCATCATATATTCACCAACATTAGGATACGGAGTCACCTAGTGCAG”, the binding signal was 13800 fluorescence intensity (a.u.).

For “CACCCAACTACCACCACCTCTGTGTTTTCCTGCACTCTCCCGGAGTCACCTAGTGCAG”, the binding signal was 8030 fluorescence intensity (a.u.).

As for “AGGATATTGACCCATCATTCTATAATCTTATTTTCGGCATCGGAGTCACCTAGTGCAG”, the binding signal was 8360 fluorescence intensity (a.u.).

For “ATCTATAATTTATAAACCGCTCCCATAACCATCATTTTTTCGGAGTCACCTAGTGCAG”, the binding signal was 8600 fluorescence intensity (a.u.).

Consider “GCCGCTCCAGCTAGCTCCCGCCGCCGCTCGCTCCCCACGGCGGAGTCACCTAGTGCAG”, for which the binding signal was 8770 fluorescence intensity (a.u.).

In the case of “ACTTACTATTTATCACTTTGACAGTGACTCTTTTGTATATCGGAGTCACCTAGTGCAG”, the binding signal was 9390 fluorescence intensity (a.u.).

Consider “AGTCAGTCTCACTCTCTTCCTCCAAATCGTTGGTGCTGCTCGGAGTCACCTAGTGCAG”, for which the binding signal was 8190 fluorescence intensity (a.u.).

With “ATCAAATATGCACCTAAATTCACAATTTTTTTTGGTTTCCCGGAGTCACCTAGTGCAG”, the binding signal was 8960 fluorescence intensity (a.u.).

For the sequence “GTATGACGCAATTGATTTTTTATCTAACGTTTGACCATTTCGGAGTCACCTAGTGCAG”, the binding signal is 10300 fluorescence intensity (a.u.).

In the case of “GGTTTTTGTCATGATCGTTGATGAAGATAAGTCACATGCCCGGAGTCACCTAGTGCAG”, the binding signal is 9240 fluorescence intensity (a.u.).

Turning to “GTGTCAGTGGTAATTTTATCAACTTTAAGATATACCGATCCGGAGTCACCTAGTGCAG”, the binding signal was 8440 fluorescence intensity (a.u.).

For the sequence “CTGCCTGCCTTGACCACACACACACTGCCCGGCCAGCTCACGGAGTCACCTAGTGCAG”, the binding signal was 10300 fluorescence intensity (a.u.).

With “CTTTTTCACTAGCGCTTAATCTGTTTGTTACATTAAAACTCGGAGTCACCTAGTGCAG”, the binding signal is 10400 fluorescence intensity (a.u.).

With “TATCAACTACCCAGTCCGCGTTTTCCTCTCTAAACCCGCACGGAGTCACCTAGTGCAG”, the binding signal is 8240 fluorescence intensity (a.u.).

“CCCAACTACCTTAAAGCACCACATCATTTACCTGTACAAACGGAGTCACCTAGTGCAG”: the binding signal was 10200 fluorescence intensity (a.u.).

For “GCACGACCCAACCAACTGCGCCGCCGCTGCGCCCTCGTCGCGGAGTCACCTAGTGCAG”, the binding signal is 8980 fluorescence intensity (a.u.).

For “CACCCTTGCATCCGTCGCGCTCGTGAACGCCATCACCCATCGGAGTCACCTAGTGCAG”, the binding signal is 9940 fluorescence intensity (a.u.).

As for “TTTCATTTACATGCTTGCAAACATTGTTTTTGTTGGATATCGGAGTCACCTAGTGCAG”, the binding signal was 9800 fluorescence intensity (a.u.).

“ATGTTTGACCATTCATCTTATTCAAAAAATTTACATAATTCGGAGTCACCTAGTGCAG”: the binding signal was 8940 fluorescence intensity (a.u.).

As to “ACTCCCTCTATTTTCAAATAGCTATTGACTGTATCTAGTACGGAGTCACCTAGTGCAG”, the binding signal was 8480 fluorescence intensity (a.u.).

Take “TTTTGTTTTTTCTCGCTTTTTTTCTCCACCGGGGAGTCATCGGAGTCACCTAGTGCAG”: the binding signal is 9190 fluorescence intensity (a.u.).

Consider “CTATACTATTAATATATGGTCTCATCTGTCATACATATATCGGAGTCACCTAGTGCAG”, for which the binding signal is 10500 fluorescence intensity (a.u.).

“CAACAAGGACACGGACACACACACCCACTCCTCCATCTTCCGGAGTCACCTAGTGCAG”: the binding signal was 9400 fluorescence intensity (a.u.).

As for “ACAAACCTTTTATGCCTCTTTTGCCGTAACAATTTACTGACGGAGTCACCTAGTGCAG”, the binding signal was 9550 fluorescence intensity (a.u.).

As to “CTTGCATTGGCGCCGCTCAACTCATCTCCAACTATAAATACGGAGTCACCTAGTGCAG”, the binding signal is 9560 fluorescence intensity (a.u.).

As for “TTGCTTCTCATGTTTGCTCGATACATGTAGTCGACGGTTCCGGAGTCACCTAGTGCAG”, the binding signal is 11100 fluorescence intensity (a.u.).

Consider “GCCGCTTATGGCTCTGCACCGCACCTTGACCCAACCAAATCGGAGTCACCTAGTGCAG”, for which the binding signal was 8150 fluorescence intensity (a.u.).

For “GGGTTGGTGGGCCTGATGGGCTTGGTTTTAGGGTTTCGTGCGGAGTCACCTAGTGCAG”, the binding signal was 9510 fluorescence intensity (a.u.).

Consider “GTGTTACTTATGTGGATCGTTATCCGCATCTCTCCTCCACCGGAGTCACCTAGTGCAG”, for which the binding signal is 8440 fluorescence intensity (a.u.).

For “GTCCGACCAACCAACCGCGGTCGGCCAGCTCTTCGTCCACCGGAGTCACCTAGTGCAG”, the binding signal is 8040 fluorescence intensity (a.u.).

As to “GCAATGTTTGTCTCCCTAAATCAGTATTCATGCATCGTTCCGGAGTCACCTAGTGCAG”, the binding signal is 8500 fluorescence intensity (a.u.).

For “CCTTTCTTGTTGCTACCTCACCAATCACCAATCTTGCTGACGGAGTCACCTAGTGCAG”, the binding signal is 8940 fluorescence intensity (a.u.).

On to “TCTTCGCTCTCATCTCCGCTTCCAGCCAGCCACTGCAACCCGGAGTCACCTAGTGCAG”, for which the binding signal is 8200 fluorescence intensity (a.u.).

As to “GCCGCACGTCTCTCTCCCCGCTCCGCTTCACCGGCGCCGTCGGAGTCACCTAGTGCAG”, the binding signal is 12100 fluorescence intensity (a.u.).

As for “GTGCGCGGTTTGTGTGAGTTTATGGGTACACATTTATGGTCGGAGTCACCTAGTGCAG”, the binding signal was 9450 fluorescence intensity (a.u.).

“TTGTCGAGGCTGATGGATAGGTTTGCTGCCTGCCAAGATTCGGAGTCACCTAGTGCAG”: the binding signal is 8260 fluorescence intensity (a.u.).

As for “GTATTCCTTGTTGCATGCCTCAATCAATCTTCTTCATTCTCGGAGTCACCTAGTGCAG”, the binding signal was 10500 fluorescence intensity (a.u.).

As for “TTGAAGCTTATGTTTCTCCTCAAACTGCCATGCTTACTGACGGAGTCACCTAGTGCAG”, the binding signal is 9630 fluorescence intensity (a.u.).

For “TCTATCCGACGAGCAGACCAAGGGAGGGGAGGGGATCCTGCGGAGTCACCTAGTGCAG”, the binding signal is 16200 fluorescence intensity (a.u.).

For the sequence “CCACCACCACCACCACCACCGCGCCCGACAACCACTTCTCCGGAGTCACCTAGTGCAG”, the binding signal is 8690 fluorescence intensity (a.u.).

Source of the values: publication PMC7819943, “Rice protein-binding microarrays: a tool to detect cis-acting elements near promoter regions in rice”.
